The source of these data is patent publication US20100076060.

The chains behind the UniProt entries cited, without tags or fusion partners. Residues count along the entry.
UniProt Q07011, 24-186: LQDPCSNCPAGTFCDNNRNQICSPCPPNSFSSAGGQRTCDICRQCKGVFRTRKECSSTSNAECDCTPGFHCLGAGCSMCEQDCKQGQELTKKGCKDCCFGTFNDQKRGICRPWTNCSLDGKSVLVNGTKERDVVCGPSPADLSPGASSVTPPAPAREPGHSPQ

The exact form of at least one protein or probe is not confirmed.

The target of series [1] is 4-1BB (CD137) extracellular portion (Homo sapiens) (UniProt Q07011). Kind of series: SELEX. As to conditions: 2'-F pyrimidines; purified recombinant protein; protein details: human IgG1 Fc fusion.
For series [2], the target named is T1, 4-1BB (CD137) extracellular portion (Mus musculus) (UniProt P20334).
T1 sequence: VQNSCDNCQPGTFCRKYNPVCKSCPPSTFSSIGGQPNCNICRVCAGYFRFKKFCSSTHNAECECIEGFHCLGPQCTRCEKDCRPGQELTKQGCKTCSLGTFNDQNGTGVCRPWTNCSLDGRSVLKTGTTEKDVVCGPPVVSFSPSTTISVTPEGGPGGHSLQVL
Put plainly: SELEX. The following applies: 2'-F pyrimidines; purified recombinant protein; protein details: human IgG1 Fc fusion.

For “GGGAGAGAGGAAGAGGGAUGGGUGCGAUCCACGGUCUAUUCACCAGUAACCUCUGACCAAAACAUAACCCAGAGGUCGAUAGUACUGGAUCCCCCC [4-1BB aptamer SEQ 47]”, the selection result in series [1] and in series [2] was “selected” in each case.

Regarding “GGGAGAGAGGAAGAGGGAUGGGCUCCAGAACCCUUCGACCUGCACGACGGUCUUCCUCGCGUCAUAACCCAGAGGUCGAUAGUACUGGAUCCCCCC [4-1BB aptamer SEQ 75]”, the selection result in series [1] and in series [2] was “selected” throughout.

For the sequence “GGGAGAGAGGAAGAGGGAUGGGCACCCUUCGUCUCAACCACCCAACUCUCCAUGUCCCUAACCAUAACCCAGAGGUCGAUAGUACUGGAUCCCCCC [4-1BB aptamer SEQ 69]”, the selection result in series [1] and in series [2] was “selected” each time.

On to “GGGAGAGAGGAAGAGGGAUGGGUGCUCUUAAUCUCCCUAAGAACCAUCUCCAUAGUCCUCCGCAUAACCCAGAGGUCGAUAGUACUGGAUCCCCCC [4-1BB aptamer SEQ 60]”, for which the selection result in series [1] and in series [2] was “selected” each time.

On to “GGGAGAGAGGAAGAGGGAUGGGGAAACCUGUGCGCAUGAAGAGCUGCUAACCCGUUACGAACCAUAACCCAGAGGUCGAUAGUACUGGAUCCCCCC [4-1BB aptamer SEQ 57]”, for which the selection result in series [1] and in series [2] was “selected” each time.

As for “GGGAGAGAGGAAGAGGGAUGGGAUACCUGUACCUUGCAACACUGCCCGACGACGCACCCGCACAUAACCCAGAGGUCGAUAGUACUGGAUCCCCCC [4-1BB aptamer SEQ 71]”, the selection result in series [1] and in series [2] was “selected” each time.

In the case of “GGGAGAGAGGAAGAGGGAUGGGUGCUCCAAUCGGAACCAUCUCGCCGCUCGCUCUCCAUUACCAUAACCCAGAGGUCGAUAGUACUGGAUCCCCCC [4-1BB aptamer SEQ 56]”, the selection result in series [1] and in series [2] was “selected” throughout.

As for “GGGAGAGAGGAAGAGGGAUGGGUGGAUCUCGCUCUGGCGCUUAGCUCCGCAAAUCUGCCGUUCAUAACCCAGAGGUCGAUAGUACUGGAUCCCCCC [4-1BB aptamer SEQ 62]”, the selection result in series [1] and in series [2] was “selected” each time.

Turning to “GGGAGAGAGGAAGAGGGAUGGGACCAGCUUCCCUGGGCCUGCUGUGAACUCCAGCCUGACUACAUAACCCAGAGGUCGAUAGUACUGGAUCCCCCC [4-1BB aptamer SEQ 64]”, the selection result in series [1] and in series [2] was “selected” each time.

Regarding “GGGAGAGAGGAAGAGGGAUGGGCCUCACUGCGUAAUCCGCCGUGAUUCACCGCUGUACACGACAUAACCCAGAGGUCGAUAGUACUGGAUCCCCCC [4-1BB aptamer SEQ 54]”, the selection result in series [1] and in series [2] was “selected” in each case.

As to “GGGAGAGAGGAAGAGGGAUGGGACGACCUCUUUGAUUACCUGGGCUGAUUUGCCAUCUUCACCAUAACCCAGAGGUCGAUAGUACUGGAUCCCCCC [4-1BB aptamer SEQ 52]”, the selection result in series [1] and in series [2] was “selected” each time.

On to “GGGAGAGAGGAAGAGGGAUGGGCCACACGCUACUAUCAACCGCUGCGUUCAAACUUGGGAUCCAUAACCCAGAGGUCGAUAGUACUGGAUCCCCCC [4-1BB aptamer SEQ 72]”, for which the selection result in series [1] and in series [2] was “selected” throughout.

As to “GGGAGAGAGGAAGAGGGAUGGGCGAUCCUCUGUACACGACACUCAUUCCACAGUACGGGACGCAUAACCCAGAGGUCGAUAGUACUGGAUCCCCCC [4-1BB aptamer SEQ 68]”, the selection result in series [1] and in series [2] was “selected” throughout.

Turning to “GGGAGAGAGGAAGAGGGAUGGGACCUUUACCGCCGACCCGGACAGAGUGAGCCUCUGCAGAGCAUAACCCAGAGGUCGAUAGUACUGGAUCCCCCC [4-1BB aptamer SEQ 74]”, the selection result in series [1] and in series [2] was “selected” throughout.

In the case of “GGGAGAGAGGAAGAGGGAUGGGCACUUCCACUCACAACGGCAAAACUUCAACUCCAAUACCCUCAUAACCCAGAGGUCGAUAGUACUGGAUCCCCCC [4-1BB aptamer SEQ 63]”, the selection result in series [1] and in series [2] was “selected” in each case.

As for “GGGAGAGAGGAAGAGGGAUGGGGCCUUUACACCGACCCUGCCAAGAACGAAGCGCGAACAACCAUAACCCAGAGGUCGAUAGUACUGGAUCCCCCC [4-1BB aptamer SEQ 65]”, the selection result in series [1] and in series [2] was “selected” each time.

Take “GGGAGAGAGGAAGAGGGAUGGGCCCCCGCGUCCUCCCAACCCAAAAUUCCCCUGGCACCCUCCAUAACCCAGAGGUCGAUAGUACUGGAUCCCCCC [4-1BB aptamer SEQ 59]”: the selection result in series [1] and in series [2] was “selected” in each case.

Turning to “GGGAGAGAGGAAGAGGGAUGGGCACCAUCGAUAUCACGCACUGACACCAGUACCCUUGCGCACAUAACCCAGAGGUCGAUAGUACUGGAUCCCCCC [4-1BB aptamer SEQ 55]”, the selection result in series [1] and in series [2] was “selected” throughout.

As to “GGGAGAGAGGAAGAGGGAUGGGCUCCAGACAUAGUAUCCGCCAGUAACCUCUGUAACGCCCGCAUAACCCAGAGGUCGAUAGUACUGGAUCCCCCC [4-1BB aptamer SEQ 48]”, the selection result in series [1] and in series [2] was “selected” in each case.

For the sequence “GGGAGAGAGGAAGAGGGAUGGGGGAUCGACCCGCUUGCUGCGACACGACCGUCGUAACCAACAUAACCCAGAGGUCGAUAGUACUGGAUCCCCCC [4-1BB aptamer SEQ 61]”, the selection result in series [1] and in series [2] was “selected” in each case.

As to “GGGAGAGAGGAAGAGGGAUGGGAACCGACCGCAGAUCUGGACACUAGCUUUCGCGAGGAUUCAUAACCCAGAGGUCGAUAGUACUGGAUCCCCCC [4-1BB aptamer SEQ 28]”, the selection result in series [2] is recorded as “selected”.

Turning to “GGGAGAGAGGAAGAGGGAUGGGGAAGACCAAACGAGCCACCUUCAAGUCCCAUCCAACCCCUCAUAACCCAGAGGUCGAUAGUACUGGAUCCCCCC [4-1BB aptamer SEQ 39]”, in series [2], the selection result was “selected”.

On to “GGGAGAGAGGAAGAGGGAUGGGGAAGCACAAUAGGCCGCAACACUUCAAAACCCAUUCAAUCCAUAACCCAGAGGUCGAUAGUACUGGAUCCCCCC [4-1BB aptamer SEQ 6]”, for which, in series [2], the selection result is given as “selected”.

For “GGGAGAGAGGAAGAGGGAUGGGGAAGUGACAGCUCCCAGCGCUUCAAAGCUCAUCUAUAACUCAUAACCCAGAGGUCGAUAGUACUGGAUCCCCCC [4-1BB aptamer SEQ 4]”, the selection result in series [2] was “selected”.

On to “GGGAGAGAGGAAGAGGGAUGGGCCCCCUCGCAAGACCCUCAUCGCAUCUCAAGACACCUACCCAUAACCCAGAGGUCGAUAGUACUGGAUCCCCCC [4-1BB aptamer SEQ 45]”, for which the selection result in series [2] is “selected”.

“GGGAGAGAGGAAGAGGGAUGGGGAUCAAACUAAUCGCCCUCUAACUUGAUCGGCCCGACUCCCAUAACCCAGAGGUCGAUAGUACUGGAUCCCCCC [4-1BB aptamer SEQ 58]”: the selection result in series [1] and in series [2] was “selected” in each case.

For “GGGAGAGAGGAAGAGGGAUGGGCAAACUUCCCUGUGGUUAUAGCACUGCGUUGGGUCCCUUGCAUAACCCAGAGGUCGAUAGUACUGGAUCCCCCC [4-1BB aptamer SEQ 70]”, the selection result in series [1] and in series [2] was “selected” throughout.

Turning to “GGGAGAGAGGAAGAGGGAUGGGUAACGGCCCAAUGACUUCGCCUUACUGCCCCCCUAAGCUUCCAUAACCCAGAGGUCGAUAGUACUGGAUCCCCCC [4-1BB aptamer SEQ 11]”, the selection result in series [2] is reported as “selected”.

With “GGGAGAGAGGAAGAGGGAUGGGGGCUUCCCUGCACUUGAUCUGGCCCGACCACCAGCCUGUGCAUAACCCAGAGGUCGAUAGUACUGGAUCCCCCC [4-1BB aptamer SEQ 67]”, the selection result in series [1] and in series [2] was “selected” in each case.

In the case of “GGGAGAGAGGAAGAGGGAUGGGGCUUCUACAGGGGGUAAAGAUUCGCUCAUCACUCGCAAAACAUAACCCAGAGGUCGAUAGUACUGGAUCCCCCC [4-1BB aptamer SEQ 29]”, in series [2], the selection result is listed as “selected”.

For the sequence “GGGAGAGAGGAAGAGGGAUGGGGCACAGCAACACCACGACCCCCCCUAGGCUUCCGCCCGCACAUAACCCAGAGGUCGAUAGUACUGGAUCCCCCC [4-1BB aptamer SEQ 10]”, in series [2], the selection result is “selected”.

As for “GGGAGAGAGGAAGAGGGAUGGGUAAGCGGCCUCGAACACCGAUUGACUACUGCCCGAACAUCCAUAACCCAGAGGUCGAUAGUACUGGAUCCCCCC [4-1BB aptamer SEQ 44]”, in series [2], the selection result is “selected”.

“GGGAGAGAGGAAGAGGGAUGGGGCACCAAACACCGGUUCAGAACCCAUCAUGUAACUCCUUGCAUAACCCAGAGGUCGAUAGUACUGGAUCCCCCC [4-1BB aptamer SEQ 18]”: the selection result in series [2] is recorded as “selected”.

For the sequence “GGGAGAGAGGAAGAGGGAUGGGCGACCGAACGUGCCCUUCAAAGCCGUUCACUAACCAGUGCCAUAACCCAGAGGUCGAUAGUACUGGAUCCCCCC [4-1BB aptamer SEQ 1]”, the selection result in series [2] is recorded as “selected”.

In the case of “GGGAGAGAGGAAGAGGGAUGGGCGACCGAACGUGCCCUUCAAAGCCGUUCACUAACCAGUGGCAUAACCCAGAGGUCGAUAGUACUGGAUCCCCCC [4-1BB aptamer SEQ 2]”, the selection result in series [2] is listed as “selected”.

In the case of “GGGAGAGAGGAAGAGGGAUGGGCAAGCACUCUUCAGGCUAAGGACUCUCUUGACACCCCGCCAUAACCCAGAGGUCGAUAGUACUGGAUCCCCCC [4-1BB aptamer SEQ 26]”, the selection result in series [2] is “selected”.

As to “GGGAGAGAGGAAGAGGGAUGGGCCGACGACCUCCUUCACCUCCCCUUCCUCGAACUCCAACCCAUAACCCAGAGGUCGAUAGUACUGGAUCCCCCC [4-1BB aptamer SEQ 50]”, the selection result in series [1] and in series [2] was “selected” in each case.

Take “GGGAGAGAGGAAGAGGGAUGGGCACCUUCCCUUUCUCCAAGACAAGCCUCAUGUCAAACUCUCAUAACCCAGAGGUCGAUAGUACUGGAUCCCCCC [4-1BB aptamer SEQ 66]”: the selection result in series [1] and in series [2] was “selected” throughout.
